# In patent EP4567040A1, “CRYSTAL FORM OF FUSED TRICYCLIC DERIVATIVE AND PREPARATION METHOD” (Jiangsu Hengrui Pharmaceuticals Co., Ltd., priority 2022, dated 2024):
# This continues a long series; more values of the same kind are listed elsewhere.
# Test: Influencing factor stability study of crystal forms
# Type: physicochemical
# Description: Example 50. Influencing Factor Stability Study of Crystal Forms Free-state samples were spread out, left to stand in open flasks, and subjected to 30-day stability tests under light exposure (4500 Lux), high temperature (40 °C and 60 °C), and high humidity (RH 75% and RH 92.5%) conditions.
# [1] = Light exposure (4500 Lux), 7 days, open flask
# [2] = Light exposure (4500 Lux), 14 days, open flask
# [3] = Light exposure (4500 Lux), 30 days, open flask
compound,measurement,setting,value
"C[C@H]1COc2c(-c3nc(N[C@@H]4CCOC[C@H]4O)ncc3Cl)cc(F)c3nc(C(C)(C)O)n1c23 [Crystal form F, (3S,4R)-4-((5-chloro-4-((S)-8-fluoro-2-(2-hydroxypropan-2-yl)-3-methyl-3,4-dihydro-5-oxa-1,2a-diazaacenaphthylen-6-yl)pyrimidin-2-yl)amino)tetrahydro-2H-pyran-3-ol]",Purity%,"40 °C, 7 days, open flask",99.9%
same,Purity%,"40 °C, 14 days, open flask",99.9%
same,Purity%,"40 °C, 30 days, open flask",99.9%
same,Purity%,"60 °C, 7 days, open flask",99.9%
same,Purity%,"60 °C, 14 days, open flask",99.9%
same,Purity%,"60 °C, 30 days, open flask",99.9%
same,Purity%,"75% RH, 7 days, open flask",99.9%
same,Purity%,"75% RH, 14 days, open flask",99.9%
same,Purity%,"75% RH, 30 days, open flask",99.9%
same,Purity%,"92.5% RH, 7 days, open flask",99.9%
same,Purity%,"92.5% RH, 14 days, open flask",99.9%
same,Purity%,"92.5% RH, 30 days, open flask",99.9%
same,Purity%,"Initial, 0 days",99.9%
same,Purity%,[1],99.6%
same,Purity%,[2],99.4%
same,Purity%,[3],98.1%
"C[C@H]1COc2c(-c3nc(N[C@@H]4CCOC[C@H]4O)ncc3Cl)cc(F)c3nc(C(C)(C)O)n1c23 [Crystal form H, (3S,4R)-4-((5-chloro-4-((S)-8-fluoro-2-(2-hydroxypropan-2-yl)-3-methyl-3,4-dihydro-5-oxa-1,2a-diazaacenaphthylen-6-yl)pyrimidin-2-yl)amino)tetrahydro-2H-pyran-3-ol]",Purity%,"40 °C, 7 days, open flask",99.96%
same,Purity%,"40 °C, 14 days, open flask",99.94%
same,Purity%,"40 °C, 30 days, open flask",99.93%
same,Purity%,"60 °C, 7 days, open flask",99.95%
same,Purity%,"60 °C, 14 days, open flask",99.94%
same,Purity%,"60 °C, 30 days, open flask",99.92%
same,Purity%,"75% RH, 7 days, open flask",99.96%
same,Purity%,"75% RH, 14 days, open flask",99.95%
same,Purity%,"75% RH, 30 days, open flask",99.95%
same,Purity%,"92.5% RH, 7 days, open flask",99.95%
same,Purity%,"92.5% RH, 14 days, open flask",99.95%
same,Purity%,"92.5% RH, 30 days, open flask",99.94%
same,Purity%,"Initial, 0 days",99.95%
same,Purity%,[1],99.89%
same,Purity%,[2],99.83%
same,Purity%,[3],99.69%
"C[C@H]1COc2c(-c3nc(N[C@@H]4CCOC[C@H]4O)ncc3Cl)cc(F)c3nc(C(C)(C)O)n1c23 [Crystal form G, (3S,4R)-4-((5-chloro-4-((S)-8-fluoro-2-(2-hydroxypropan-2-yl)-3-methyl-3,4-dihydro-5-oxa-1,2a-diazaacenaphthylen-6-yl)pyrimidin-2-yl)amino)tetrahydro-2H-pyran-3-ol]",Purity%,"40 °C, 7 days, open flask",99.9%
same,Purity%,"40 °C, 14 days, open flask",99.9%
same,Purity%,"40 °C, 30 days, open flask",99.9%
same,Purity%,"60 °C, 7 days, open flask",99.9%
same,Purity%,"60 °C, 14 days, open flask",99.9%
same,Purity%,"60 °C, 30 days, open flask",99.9%
same,Purity%,"75% RH, 7 days, open flask",99.9%
same,Purity%,"75% RH, 14 days, open flask",99.9%
same,Purity%,"75% RH, 30 days, open flask",99.9%
same,Purity%,"92.5% RH, 7 days, open flask",99.9%
same,Purity%,"92.5% RH, 14 days, open flask",99.9%
same,Purity%,"92.5% RH, 30 days, open flask",99.9%
same,Purity%,"Initial, 0 days",99.9%
same,Purity%,[1],98.5%
same,Purity%,[2],98.1%
same,Purity%,[3],96.8%
"C[C@H]1COc2c(-c3nc(N[C@@H]4CCOC[C@H]4O)ncc3Cl)cc(F)c3nc(C(C)(C)O)n1c23 [Free-state amorphous form, (3S,4R)-4-((5-chloro-4-((S)-8-fluoro-2-(2-hydroxypropan-2-yl)-3-methyl-3,4-dihydro-5-oxa-1,2a-diazaacenaphthylen-6-yl)pyrimidin-2-yl)amino)tetrahydro-2H-pyran-3-ol]",Purity%,"40 °C, 7 days, open flask",99.0%
same,Purity%,"40 °C, 14 days, open flask",99.0%
same,Purity%,"40 °C, 30 days, open flask",98.9%
same,Purity%,"60 °C, 7 days, open flask",99.0%
same,Purity%,"60 °C, 14 days, open flask",99.0%
same,Purity%,"60 °C, 30 days, open flask",99.0%
same,Purity%,"75% RH, 7 days, open flask",99.0%
same,Purity%,"75% RH, 14 days, open flask",99.0%
same,Purity%,"75% RH, 30 days, open flask",98.9%
same,Purity%,"92.5% RH, 7 days, open flask",99.0%
same,Purity%,"92.5% RH, 14 days, open flask",99.0%
same,Purity%,"92.5% RH, 30 days, open flask",98.9%
same,Purity%,"Initial, 0 days",99.0%
same,Purity%,[1],98.3%
same,Purity%,[2],97.8%
same,Purity%,[3],97.4%
